Structures are written as SMILES. The list does not hold the whole screen: it gathers tests that were run many times, whatever their T/C, doses with no T/C, and many T/C values between a quarter and a half above the control. Further doses and runs are listed elsewhere. T/C is the treated group as % of the vehicle group. Some doses have a count of surviving animals in place of a T/C: the source files T/C as zero there, which appears to mark a toxic dose or a test without result, not a measured value. Some doses without a T/C left all or most animals alive at the check, yet need not have been tolerated: survival well below the control is almost never listed, so the zero probably covers shortened survival too. Counts of survivors are from the toxicity check (mostly the fifth day) where no day follows; animals may have died later. Schedules are NCI's codes, taken here to give the interval after Q, in days (D) or hours (H), and the number of doses after X. Some entries hold several experiments; the values are given in rising order. Some schedule codes hold Z or #, which are not explained here. Where survival is the endpoint, this PubChem deposit counts one and a half times the control or more as active, and values a quarter to a half above the control carry no call in these data; other NCI protocols may use other cut-offs. Some T/C values are followed by the survivors on the day toxicity was checked, most often the fifth; without a count, all were alive then.

This experiment has as its system L1210 leukemia ip in BDF1 mice, survival T/C. The experiment can be described thus: NCI In Vivo Anticancer Drug Screen. Data for tumor model L1210 Leukemia (intraperitoneal) in B6D2F1 (BDF1) mice. Conditions: T/C endpoint: mean survival time, higher T/C = longer survival.
Setting [1] is: dose: 200.0 mg/kg/injection, schedule: Q01DX001 (ip), vehicle: saline.
Setting [2] is: dose: 400.0 mg/kg/injection, schedule: Q01DX001 (ip), vehicle: saline.
Where [3] appears, read: dose: 100.0 mg/kg/injection, schedule: Q01DX009 (ip), vehicle: saline with Tween-80.
[4] abbreviates: dose: 400.0 mg/kg/injection, schedule: Q01DX009 (ip), vehicle: saline with Tween-80.
[5] abbreviates: dose: 400.0 mg/kg/injection, schedule: Q04DX003 (ip), vehicle: Klucel (hydroxypropylcellulose) (HPC).
The mark [6] stands for this setting: dose: 10.0 mg/kg/injection, schedule: Q01DX009 (ip), vehicle: saline.
[7] abbreviates: dose: 200.0 mg/kg/injection, schedule: Q04DX003 (ip), vehicle: saline with Tween-80.
[8] abbreviates: dose: 400.0 mg/kg/injection, schedule: Q04DX003 (ip), vehicle: saline with Tween-80.
Where [9] appears, read: dose: 400.0 mg/kg/injection, schedule: Q04DX003 (ip), vehicle: saline.
Setting [10] is: dose: 100.0 mg/kg/injection, schedule: Q01DX001 (ip), vehicle: saline.
Setting [11] is: dose: 200.0 mg/kg/injection, schedule: Q04DX003 (ip), vehicle: Klucel (hydroxypropylcellulose) (HPC).

With `O=C(Nc1cccc(C2=NCCN2)c1)c1ccc2cc(C(=O)Nc3cccc(C4=NCCN4)c3)ccc2c1`, the T/C (dose: 60.0 mg/kg/injection, schedule: Q01DX Z (ip), vehicle: carboxymethylcellulose (CMC)) was 137 % of control. Besides, the survivor count is 0 of 6 (dose: 125.0 mg/kg/injection, schedule: Q01DX Z (ip), vehicle: water); 0 of 6 (dose: 250.0 mg/kg/injection, schedule: Q01DX Z (ip), vehicle: water); 0 of 6 (dose: 500.0 mg/kg/injection, schedule: Q01DX Z (ip), vehicle: water).
`COC(=O)C[N+]1(C)C2CCC1CC(Cl)C2` (stereo unspecified): the survivor count under setting [1] is recorded as 1 of 3 and the survivor count under setting [2] is reported as 0 of 3.
`COc1cccc(NC(=S)Nc2cccc(OC)c2)c1`: the survivor count under setting [3] was 2 of 3; the survivor count (dose: 100.0 mg/kg/injection, schedule: Q04DX002 (ip), vehicle: saline with Tween-80) was 3 of 3; the survivor count under setting [4] is on record as 3 of 3.
Turning to `Cc1cc(=O)[nH]c(N/N=C2/CCCCC2C)n1` (stereo unspecified), the survivor count under setting [5] is reported as 2 of 6.
As for `CC1(C)OCC(CO)(Nc2nc(N3CC3)nc(N3CC3)n2)CO1`, the T/C (dose: 1.25 mg/kg/injection, schedule: Q01DX009 (ip), vehicle: saline) was 129 % of control [5 of 6 alive]. Also, the survivor count under setting [6] was 5 of 6.
`Clc1ccc(C(Cl)(Cl)Cl)cc1Cl`: under setting [5], the survivor count was 0 of 6.
`CCOC(=O)c1ccc(OC(=O)Nc2ccc(Cl)cc2OC)cc1`: the survivor count (dose: 400.0 mg/kg/injection, schedule: Q01DX009 (ip), vehicle: saline) is 4 of 6.
As to `Cc1cc(NC(=O)Nc2ccc(F)cc2)no1`, the survivor count (dose: 100.0 mg/kg/injection, schedule: Q04DX002 (ip), vehicle: carboxymethylcellulose (CMC)) was 3 of 3.
With `O=C(O)c1cc(=O)cc(C(=O)O)o1`, the survivor count was 2 of 6 under setting [7] and 1 of 6 under setting [8].
`Cc1ccc2[nH]c(C)cc(=O)c2c1`: the survivor count was 0 of 6 (dose: 75.0 mg/kg/injection, schedule: Q01DX001 (ip), vehicle: saline); 0 of 6 (dose: 150.0 mg/kg/injection, schedule: Q01DX001 (ip), vehicle: saline); 0 of 6 (dose: 300.0 mg/kg/injection, schedule: Q01DX001 (ip), vehicle: saline).
Turning to `CSc1cccc[n+]1[O-]`, the survivor count (dose: 200.0 mg/kg/injection, schedule: Q04DX002 (ip), vehicle: saline) is on record as 3 of 3.
With `CS(=O)(=O)OCCCN(CCCOS(C)(=O)=O)c1ccc(C=Nc2ccc(-c3csc(COc4ccc(Br)cc4)n3)cc2)cc1`, under setting [4], the survivor count is 5 of 6.
`CCN(CC)CCC(=O)Nc1cccc2c1C(=O)c1c(c(O)c3ccccc3c1O)C2=O`: the survivor count is given as 6 of 6 (dose: 200.0 mg/kg/injection, schedule: Q01DX009 (ip), vehicle: saline with Tween-80) and 3 of 6 under setting [8].
Turning to `CCCSc1ncnc2nc[nH]c12`, the T/C (dose: 125.0 mg/kg/injection, schedule: Q01DX009 (ip), vehicle: saline) was 126 % of control. In addition, the survivor count (dose: 250.0 mg/kg/injection, schedule: Q01DX009 (ip), vehicle: saline) was 2 of 6.
In the case of `c1ccc([P+](CCN2CCC([P+](c3ccccc3)(c3ccccc3)c3ccccc3)=N2)(c2ccccc2)c2ccccc2)cc1`, the survivor count is 1 of 6 (dose: 6.25 mg/kg/injection, schedule: Q04DX003 (ip), vehicle: saline); 2 of 6 (dose: 12.5 mg/kg/injection, schedule: Q04DX003 (ip), vehicle: saline); 0 of 6 (dose: 25.0 mg/kg/injection, schedule: Q04DX003 (ip), vehicle: saline); 0 of 6 (dose: 50.0 mg/kg/injection, schedule: Q04DX003 (ip), vehicle: saline); 0 of 6 and 6 of 6 (dose: 100.0 mg/kg/injection, schedule: Q04DX003 (ip), vehicle: saline); 6 of 6 (dose: 200.0 mg/kg/injection, schedule: Q04DX003 (ip), vehicle: saline). Besides, the survivor count under setting [9] was 0 of 6.
As to `c1ccc([P+](c2ccccc2)(c2ccccc2)c2ccccc2)cc1`, the survivor count reads like this: under setting [6], 2 of 6; (dose: 20.0 mg/kg/injection, schedule: Q01DX001 (ip), vehicle: saline) 4 of 6; (dose: 40.0 mg/kg/injection, schedule: Q01DX001 (ip), vehicle: saline) 2 of 6; (dose: 80.0 mg/kg/injection, schedule: Q01DX001 (ip), vehicle: saline) 0 of 6; under setting [10], 0 of 4; under setting [1], 0 of 4. Also, the survivor count under setting [2] is 0 of 4.
Consider `CN(C)c1ccc(/C=C(\C#N)c2ccccc2)cc1`, for which, where the note is “dose: 400.0 mg/kg/injection, schedule: Q01DX001 (ip), vehicle: saline with Tween-80”, the survivor count is listed as 6 of 6.
Regarding `COc1ccc(-n2cnc3c(=O)[nH]c(N)nc32)cc1`, the survivor count under setting [10] was 6 of 6 and the survivor count under setting [2] is recorded as 6 of 6.
On to `OC(CCl)CNc1ccc(-c2ccccc2)cc1` (stereo unspecified), for which the survivor count (dose: 50.0 mg/kg/injection, schedule: Q04DX003 (ip), vehicle: Klucel (hydroxypropylcellulose) (HPC)) is 6 of 6.
As for `CC(O)/C(=N/Nc1ccc([N+](=O)[O-])cc1[N+](=O)[O-])C(=O)O` (stereo unspecified), the survivor count under setting [5] is 3 of 6.
`NNC(=O)[C@H]1CC[C@H]1C(=O)NN`: the T/C is 128 % of control (dose: 200.0 mg/kg/injection, schedule: Q01DX009 (ip), vehicle: saline) and 100, 113 [5 of 6 alive], 125, 132 % of control under setting [9]. Further, the survivor count (dose: 300.0 mg/kg/injection, schedule: Q01DX009 (ip), vehicle: saline) is 5 of 6.
With `Nc1ncnc(N)c1NC(=O)c1cc(Cl)cc(Cl)c1`, under setting [11], the survivor count was 6 of 6.
For the molecule `O=C(O)C(Oc1ccc(Cl)cc1)c1ccc(Cl)cc1` (stereo unspecified), the survivor count under setting [5] is on record as 3 of 6.
For the molecule `O=[N+]([O-])c1ccccc1N=Cc1ccccc1O.[Co]`, the survivor count (dose: 400.0 mg/kg/injection, schedule: Q01DX001 (ip), vehicle: other) is listed as 0 of 6.
As to `Nc1ncnc(NC2CCCCC2)n1`, the survivor count by setting is: (dose: 100.0 mg/kg/injection, schedule: Q01DX009 (ip), vehicle: Klucel (hydroxypropylcellulose) (HPC)) 1 of 6; under setting [11], 0 of 6.
On to `O=C1OC(=O)C2C(c3ccccc3)C=CC(c3ccccc3)C12` (stereo unspecified), for which the survivor count under setting [9] is recorded as 1 of 6.
On to `CCOc1ccccc1C=C(C#N)C#N`, for which the survivor count is reported as 1 of 3 (dose: 200.0 mg/kg/injection, schedule: Q04DX002 (ip), vehicle: saline with Tween-80) and 0 of 3 (dose: 400.0 mg/kg/injection, schedule: Q04DX002 (ip), vehicle: saline with Tween-80).
Regarding `Cc1ccc(C)c(NC(=O)Oc2ccc(Cl)cc2C)c1`, the survivor count is 3 of 3 under setting [3]; 6 of 6 (dose: 100.0 mg/kg/injection, schedule: Q04DX003 (ip), vehicle: saline with Tween-80); 6 of 6 (dose: 200.0 mg/kg/injection, schedule: Q01DX001 (ip), vehicle: saline with Tween-80); 6 of 6 under setting [7]; 6 of 6 under setting [8].

For the origin of these results see PubChem BioAssay AID248 (DTP/NCI, 2004).
